The record followed here is article PMC10540840 (Frontiers in Oncology, 2023).

Plain letter strings leave the end groups untold.

This data set can be described thus: peptide made by a vendor. The following applies: peak area percentage.

On to TSLDASIWAMMQNA, for which the “purity (crude or final not stated)” value amounted to 96.401%.
